Data reported in publication PMC12040169 (PLOS Biology, 2025).
Some of the results follow.

Test system: T1, CTL2-GFP (C. trachomatis L2/434/Bu, GFP-expressing)
T1 construct: L2/434/Bu, GFP-expressing
Design: species or system HeLa; Intracellular C. trachomatis growth in HeLa cells, bulk GFP fluorescence relative to DMSO
Conditions: bulk GFP, single well; 28.5 h, 10 µM; inhibitor

| SMILES | % of control remaining [%] |
| --- | --- |
| O=C(O)C1CCN(C(=O)CCN2C(=O)[C@@H]3Cc4ccccc4CN3C2=O)CC1 [CBK286682] | 151.274 |
| CN(C)CC1CN(c2nc(-c3ccncc3)nc3c2CCC3)CCO1 (centres unmarked) [CBK305824] | 129.284 |
| CCN(CC)CCSc1nc(O)c(Cc2ccccc2)c(=O)[nH]1 [CBK072486] | 108.475 |
| CCCNC(=O)N1CCC(n2cnc3cccnc32)CC1 [CBK282282] | 105.738 |
| CN(Cc1cc(Br)cs1)C(=O)CCc1c[nH]c2ccccc12 [CBK298268] | 107.275 |
| CCc1ncc(C(=O)N(Cc2ccccn2)CC2CCCO2)cn1 (centres unmarked) [CBK307077] | 84.0627 |
| COC(=O)c1ccc(N/C(C)=C/C(=O)c2ccc(C)o2)cc1 [CBK267057] | 60.5735 |
| CC(=O)Nc1ccc(S(=O)(=O)Nc2ccnc(N3CCN4CCCC4C3)n2)cc1 (centres unmarked) [CBK000380C] | 112.572 |
| CC1CCc2c(sc(NC(=O)c3ccn(C)n3)c2C#N)C1 (centres unmarked) [CBK304682] | 118.416 |
| CCCSc1ncc(Cl)c(C(=O)Nc2ccc(S(=O)(=O)N3CC(C)OC(C)C3)cc2)n1 (centres unmarked) [CBK269055] | 118.573 |
| O=[N+]([O-])c1ccc(N2CCN(S(=O)(=O)c3ccc4ccccc4c3)CC2)cc1 [CBK157773] | 122.461 |
| O=C(c1c[nH]nc1-c1cc2ccccc2o1)N1CCC(O)(C(F)(F)F)C1 (centres unmarked) [CBK305549] | 135.474 |
| COc1ccc(-c2ccc3nnc(SCc4cccnc4)n3n2)cc1 [CBK287680] | 123.45 |
| CCOc1ccc(CNc2ccc(C3c4ccsc4CCN3C(=O)COC)cc2)cc1 (centres unmarked) [CBK286453] | 105.348 |
| C[C@H](Cn1nc2c(cc1=O)CCCCC2)NC(=O)C1CCCC1 [CBK284546] | 160.515 |
| Cc1ccc(Nc2nc(O)ns2)cc1 [CBK026011] | 74.8685 |
| CCCOC1CCCN(c2nccc(-c3cc(C(=O)O)ccn3)n2)C1 (centres unmarked) [CBK307703] | 125.046 |
| CSCCN1CCC2(CC1)CN(CCO)c1ccccc12 [CBK126771] | 103.344 |
| O=C(NC1CC2(CCOCC2)Oc2ccccc21)c1ccco1 (centres unmarked) [CBK285378] | 117.901 |
| O=C(O)CCN1C(=O)C(O)=C(C(=O)c2ccc(Cl)cc2)C1c1ccccc1[N+](=O)[O-] (centres unmarked) [CBK264553] | 116.466 |
| CC[C@H]1CN(C(=O)C2CC2)CC[C@H]1CC(=O)NCc1ccc2c(c1)OCO2 [CBK289133] | 125.348 |
| FC(F)(F)c1ccc2[nH]c(Cn3cncn3)nc2c1 [CBK007335] | 119.12 |
| O=C(O)CCC(=O)Nc1ccc(N2CCN(CCO)CC2)cc1 [CBK078486] | 103.175 |
| COCC(=O)Nc1nc2c(s1)C[C@]1(C)CC[C@@H]3[C@H](OC(=O)[C@H]3C)[C@H]1[C@@H]2C [CBK289430] | 153.31 |
| CCOc1cc(/C=N\NC(=O)CNc2ccccc2C)cc(Br)c1O [CBK262151] | 114.982 |
| O=S(=O)(NCCc1ccncc1)c1ccc(Cl)c(Cl)c1 [CBK044438] | 62.2976 |
| O=C(Nc1cncc(OC2CCNCC2)n1)c1cnc2ccccc2c1 [CBK036377T] | 107.71 |

| SMILES | % of control remaining [%] |
| --- | --- |
| CCCN1C(=O)N(CO)C2C1N(CO)C(=O)N2CCC (centres unmarked) [CBK263882] | 149.974 |
| CC(Oc1cccc(C#N)c1)C(=O)N1CCSCC1 (centres unmarked) [CBK305748] | 87.8835 |
| S=C(NCCN1CCCCC1)NCc1ccco1 [CBK268171] | 110.236 |
| O=S(=O)(c1ccc(-c2cncc(-c3ccc(O)cc3)n2)cc1F)N1CCOCC1 [CBK126903] | 130.63 |
| COc1ccccc1-c1nnc(SCC(=O)N2CCN(c3ccccc3)CC2)[nH]1 [CBK270105] | 123.707 |
| CC(C)CCc1c(O)nc(SCCN(C)C)[nH]c1=O [CBK263382] | 100 |
| CC(C)C1OC(NCc2ccccc2Cl)=NC1=O (centres unmarked) [CBK070344] | 107.975 |
| O=[N+]([O-])c1cccc(-c2noc([C@@H]3C[C@@H](O)CN3C3CCOCC3)n2)c1 [CBK288847] | 135.866 |
| CN(C)CCN(C)Cc1ccc([N+](=O)[O-])cc1 [CBK261728] | 97.7224 |
| CC(C)Nc1cncc(OC2CCN(C)C2)n1 (centres unmarked) [CBK115598] | 112.566 |
| COc1ccccc1CC(=O)N(Cc1nc(-c2cccc(C)c2)no1)C(C)C [CBK269345] | 99.314 |
| Cc1ccc(SCCN2CCNCC2)cc1 [CBK266045G] | 168.345 |
| COC(=O)[C@H]1CN(C(=O)c2cn(C)nc2C)C[C@@H]1c1ccc(F)cc1 [CBK283720] | 104.636 |
| COc1ccc(-c2c(C)nn(-c3ccc(Cl)nn3)c2C)c(C(=O)O)c1 [CBK005774] | 111.702 |
| Nc1ccc(C(=O)Nc2ccc(Nc3cc(-c4cc(C(F)(F)F)cc(C(F)(F)F)c4)ncn3)cc2)cc1 [CBK091091] | 189.527 |
| O=C(O)CCc1ccc(-c2cccs2)n1CCOc1ccccc1Cl [CBK267885] | 108.915 |
| CCNC(=O)Nc1ncc(-c2ccc3c(c2)OCCCO3)c2cccnc12 [CBK070634] | 100 |
| CCn1nnnc1NCc1ccc(OCc2ccc(F)cc2Cl)c(OC)c1 [CBK268224] | 100.799 |
| COc1ccc(N)cc1OCCn1ccnc(N2CCNCC2)c1=O [CBK024211C] | 131.667 |
| COc1ccc(N2CCN(c3cncc(-c4cccs4)n3)CC2)cc1OC [CBK065687] | 90.1717 |
| O=C(c1cnc2[nH][nH]c(=O)c2c1)c1ccccc1O [CBK288082] | 122.668 |
| NS(=O)(=O)c1ccc(NC(=S)Nc2nn(Cc3ccc(Cl)cc3Cl)cc2Cl)cc1 [CBK267020] | 131.357 |
| Cc1cc(O)ccc1Nc1cc(-c2ccccc2N(C)C)ncn1 [CBK091051] | 68.7482 |
| CC(=O)c1c(C)oc2ccc(N(C(C)=O)S(=O)(=O)c3ccc(C(=O)O)cc3)cc12 [CBK299790] | 140.011 |
| Cc1ccc(CN(Cc2cncn2C)CC2CCCO2)o1 (centres unmarked) [CBK283272] | 111.661 |
| Cc1cc(NC(=O)CNC(=O)c2ccccc2)no1 [CBK073427] | 85.7472 |
| COc1cc(Nc2cncc(-c3ccc4ccccc4c3)n2)cc(OC)c1OC [CBK065176] | 72.9402 |

13 compounds already listed, ordered by heavy-atom count, high to low:

| SMILES | % of control remaining [%] |
| --- | --- |
| Nc1ccc(C(=O)Nc2ccc(Nc3cc(-c4cc(C(F)(F)F)cc(C(F)(F)F)c4)ncn3)cc2)cc1 [CBK091091] | 189.527 |
| NS(=O)(=O)c1ccc(NC(=S)Nc2nn(Cc3ccc(Cl)cc3Cl)cc2Cl)cc1 [CBK267020] | 131.357 |
| COc1ccccc1CC(=O)N(Cc1nc(-c2cccc(C)c2)no1)C(C)C [CBK269345] | 99.314 |
| CCn1nnnc1NCc1ccc(OCc2ccc(F)cc2Cl)c(OC)c1 [CBK268224] | 100.799 |
| O=[N+]([O-])c1cccc(-c2noc([C@@H]3C[C@@H](O)CN3C3CCOCC3)n2)c1 [CBK288847] | 135.866 |
| COc1ccc(-c2c(C)nn(-c3ccc(Cl)nn3)c2C)c(C(=O)O)c1 [CBK005774] | 111.702 |
| Cc1cc(O)ccc1Nc1cc(-c2ccccc2N(C)C)ncn1 [CBK091051] | 68.7482 |
| Cc1ccc(CN(Cc2cncn2C)CC2CCCO2)o1 (centres unmarked) [CBK283272] | 111.661 |
| CCCN1C(=O)N(CO)C2C1N(CO)C(=O)N2CCC (centres unmarked) [CBK263882] | 149.974 |
| Cc1cc(NC(=O)CNC(=O)c2ccccc2)no1 [CBK073427] | 85.7472 |
| CC(C)C1OC(NCc2ccccc2Cl)=NC1=O (centres unmarked) [CBK070344] | 107.975 |
| CN(C)CCN(C)Cc1ccc([N+](=O)[O-])cc1 [CBK261728] | 97.7224 |
| Cc1ccc(SCCN2CCNCC2)cc1 [CBK266045G] | 168.345 |

2 of these compounds, set out differently.
SMILES	% of control remaining [%]
CN(C)CCN(C)Cc1ccc([N+](=O)[O-])cc1 [CBK261728]	97.7224
CC(C)Nc1cncc(OC2CCN(C)C2)n1 (centres unmarked) [CBK115598]	112.566

Additional entries:

| SMILES | % of control remaining [%] |
| --- | --- |
| CCC(CN1CCCC1)n1cncc1-c1cn(C)nc1C (centres unmarked) [CBK281459] | 106.086 |
| CCCn1nc(C)c(-c2cncn2CCN(C)C2CCCC2)c1C [CBK281790] | 126.977 |
| O=C(O)c1[nH]c2ccccc2c1C(c1ccc(OC2CCCC2)cc1)c1c(C(=O)O)[nH]c2ccccc12 [CBK267789] | 126.667 |
| CN(C)CCNCc1ccccc1OC1CCCC1 [CBK278214C] | 201.219 |
| Fc1cc(Br)ccc1-c1cn(-c2ccc(Oc3ccccc3)cc2)nn1 [CBK113145] | 146.747 |
| O=C(CCCC(=O)N1CCCC1)N1CCCC1 [CBK006992] | 81.7179 |
| CN(C)C(=O)CN1CCN(C(=O)c2ccccc2C(=O)c2ccc(F)cc2)CC1 [CBK297921] | 141.229 |
| OC(c1cccs1)C1CCN(Cc2ccc(Cn3cccn3)cc2)CC1 (centres unmarked) [CBK307454] | 105.388 |
| NC(=O)C1(N2CCCCC2)CCN(CC(=O)Nc2ccc(Br)cc2)CC1 [CBK268364] | 149.26 |
| CC1(C)CN=C(N2CCN(C3=NCC(C)(C)S3)CC2)S1 [CBK020461] | 119.08 |
| O=C(O)CCCC(=O)Nc1ccc(O)cc1 [CBK263567] | 100 |
| O=C(O)c1cc(C(=O)O)cc(N2C(=O)c3ccc(S(=O)(=O)c4ccc5c(c4)C(=O)N(c4cc(C(=O)O)cc(C(=O)O)c4)C5=O)cc3C2=O)c1 [CBK261336] | 100 |
| O=S(=O)(Nc1ccc2c(ccn2Cc2ccccc2)c1)c1ccc(S(=O)(=O)c2ccccc2)s1 [CBK159533] | 108.769 |
| CS(=O)(=O)NC1c2cccc3cccc(c23)C1N1CCOCC1 (centres unmarked) [CBK265845] | 193.996 |
| O=C(NCCCn1ccnc1)c1cccc(S(=O)(=O)N2CCCCC2)c1 [CBK304687] | 109.292 |
| COc1cccc2cc(C(=O)NC3CC3)oc12 [CBK149813] | 119.21 |
| CSc1ccc(CN(C)CCN(C)C)cc1 [CBK019349] | 112.266 |
| O=C(O)c1ccc(Cl)c2c1C1C=CCC1C(c1ccc(S(=O)(=O)N3CCOCC3)cc1)N2 (centres unmarked) [CBK268401] | 134.456 |
| Cc1ccc(CNC(=O)C2CC(=O)N(c3cccc(C)c3C)C2)cc1 (centres unmarked) [CBK295183] | 127.705 |
| O=C(O)CCNC(=O)c1ccc(C#CC2(O)CCCCC2)cc1 [CBK286554] | 112.638 |
| C[C@H]1CN2C[C@H](O)CC2CN1Cc1cccc2ccccc12 (some centres unmarked) [CBK284717] | 114.504 |
| CC(C)c1ccccc1NC(=O)NCCc1cccs1 [CBK043938] | 121.352 |
| NC(=O)c1ccccc1OCCO [CBK000640] | 114.312 |
| CCOC(=O)c1c(-c2ccc(OC)cc2)noc1C(O)c1ccccc1 (centres unmarked) [CBK002296] | 127.048 |
| COc1cc(NC(=O)CC2NC3CCCCC3NC2=O)cc(OC)c1 (centres unmarked) [CBK266597] | 150.568 |
| Cc1ccc2ccc(S(=O)(=O)NCc3cccnc3)cc2c1 [CBK262072] | 97.3823 |
